# Primary screen of a compound library

Amino acid sequences for entries named in this document (tags omitted).
UniProt E9BF75, entry or part of it: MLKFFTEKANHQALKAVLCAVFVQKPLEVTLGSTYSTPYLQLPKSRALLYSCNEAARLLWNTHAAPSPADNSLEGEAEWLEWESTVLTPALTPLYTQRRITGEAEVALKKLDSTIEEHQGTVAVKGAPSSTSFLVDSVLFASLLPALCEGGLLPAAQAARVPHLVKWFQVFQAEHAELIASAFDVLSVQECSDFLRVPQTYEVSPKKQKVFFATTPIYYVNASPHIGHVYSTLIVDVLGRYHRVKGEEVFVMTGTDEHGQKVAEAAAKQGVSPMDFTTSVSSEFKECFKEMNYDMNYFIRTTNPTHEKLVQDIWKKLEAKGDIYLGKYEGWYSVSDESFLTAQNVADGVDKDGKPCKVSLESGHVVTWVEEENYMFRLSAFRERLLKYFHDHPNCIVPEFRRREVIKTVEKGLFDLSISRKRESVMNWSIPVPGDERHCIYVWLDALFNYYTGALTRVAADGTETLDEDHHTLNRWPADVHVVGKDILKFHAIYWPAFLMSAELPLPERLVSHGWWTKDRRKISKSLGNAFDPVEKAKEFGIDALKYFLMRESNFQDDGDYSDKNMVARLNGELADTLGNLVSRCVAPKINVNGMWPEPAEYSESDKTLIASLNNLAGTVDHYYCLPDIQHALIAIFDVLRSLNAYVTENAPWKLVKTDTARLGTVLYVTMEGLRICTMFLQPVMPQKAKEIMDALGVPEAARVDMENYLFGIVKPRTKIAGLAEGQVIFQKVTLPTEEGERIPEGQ

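Methionyl-tRNA synthetase (putative), Leishmania donovani (UniProt E9BF75). Primary screen of methionyl-tRNA synthetase; the read-out is not stated. The test concentration is not given. Values are per cent inhibition. Size under these conditions: about 68,000 compounds, about 24 of them at 50% or above in at least one test.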

All values are in %. The record does not define 0% and 100%; most values in the screen are far below 50% and negative numbers occur (in some assays of this library far below -100). Compounds were drawn at random from those tested, without regard to their results.

With COCC(=O)N1CCC2(CC1)CC(N1CCOCC1)c1ccc(C)cc12 (centres unmarked) the screen gave 8.741%.
With Cc1cc2c(c(-c3cnccn3)c1)OC(CN)C2 (centres unmarked) the screen gave 9.926%.
With COc1ncccc1CNC(=O)c1cc(F)cc(Br)c1 the screen gave 10%.
With O=C(N[C@H]1CN(C2CCOCC2)C[C@@H]1C1CC1)c1ccon1 the screen gave 5.301%.
With Cc1cc(C)n(CCC(=O)N2CCCC(n3cncn3)C2)n1 (centres unmarked) the screen gave 9.79%.
With COc1ccnc(NC(=O)c2cscn2)c1 the screen gave 22.73%.
With CC1c2ncc(CNC(=O)C3CC3)n2CCN1CC1CCC1 (centres unmarked) the screen gave -3.562%.
With O=C(C1CC1)N1CCC(c2nc(-c3ccccc3)n[nH]2)CC1 the screen gave 6.793%.
With CCc1n[nH]c(C2CN(CCS(C)(=O)=O)CCO2)n1 (centres unmarked) the screen gave 19.2%.
With O=C1CN(Cc2cnc3c(-c4ccccc4)cnn3c2)CCCN1 the screen gave 10.96%.
With CNS(=O)(=O)CC(=O)N1CCCc2cc(C(C)C)ccc21 the screen gave 17.96%.
With O=C(Cc1ccccc1)N1CCC2(CC1)CC(Nc1cnccn1)CO2 (centres unmarked) the screen gave 4.372%.
With CCOCC1CN(C(=O)c2ccnnc2)Cc2cnn(C)c21 (centres unmarked) the screen gave 1.918%.
With CSc1ncc(CNC(C)c2cnn(-c3ccc(F)cc3F)c2C)cn1 (centres unmarked) the screen gave 12.06%.
With CC(C)C1CN(Cc2cnc(N(C)C)nc2)CCCN1CC1CC1 (centres unmarked) the screen gave 9.059%.
With COc1ccc(CCCC(=O)N2CCCC(n3cncn3)C2)cc1 (centres unmarked) the screen gave 13.24%.
With Cc1cc(C(=O)NCC2(N(C)C)CCCC2)c(C)n1-c1cccnc1 the screen gave 0.6803%.
With Cc1ncc2c(c1-c1noc(-c3cscn3)n1)CCNC2 the screen gave 11.31%.
With Cc1ccc(S(=O)(=O)N2C[C@H]3C[C@H](NC(=O)c4ccn(C)n4)[C@H]3C2)cc1 the screen gave 11.3%.
With CN(C)CCN1CCOCC2(CCCN(C(=O)c3ccccc3)C2)C1 (centres unmarked) the screen gave 12.59%.
With CCCC(=O)Nc1sc(C(=O)OCC)c(C)c1C#N the screen gave 12.75%.
With NC(=O)C1(Cc2ccc(-c3ccccc3)cc2)CCCNC1 (centres unmarked) the screen gave 15.82%.
With CCCNC(=O)c1cc2c(s1)CCN2c1ncccn1 the screen gave 18.7%.
With CCc1c(C(=O)N2CCCC(N(C)C)C2)cnn1C(C)(C)C (centres unmarked) the screen gave 10.23%.
With Cc1nc(C)n(CC2CCCN2CCOc2ccccc2C#N)n1 (centres unmarked) the screen gave 20.56%.
With CCC1CCCN(S(=O)(=O)c2cnn(C)c2)C1 (centres unmarked) the screen gave 3.064%.
With Cc1ccccc1CCC1CCCN(C(=O)Cc2cc(=O)[nH]c(N)n2)C1 (centres unmarked) the screen gave 6.504%.
With Cn1c(CN2CCOCC2)cc(=O)c(O)c1CN1CCCC1 the screen gave 18.16%.
With CCC(C)(C)NC(=O)CN(Cc1cccc(O)c1)C1CCC(O)CC1 (centres unmarked) the screen gave 16.38%.
With COc1nn(C)c2c1CCCN(C(=O)c1ccccc1F)C2 the screen gave 8.982%.
With Cc1nc(C2CCCNC2)cc(N(Cc2c(C)nn(C)c2C)C2CC2)n1 (centres unmarked) the screen gave 13.36%.
With CCN(CC)S(=O)(=O)N1CCCC(c2ncc3c(n2)CCN(C)C3)C1 (centres unmarked) the screen gave 15.7%.
With CCc1nc(C2CCCN2Cc2noc(Cc3ccccc3)n2)no1 (centres unmarked) the screen gave 7.216%.
With COc1ccc(Oc2ncccc2NC(=O)N2CCOC(C)C2)cc1 (centres unmarked) the screen gave 2.338%.
With CN1CCN(C(=O)c2occc2CN2C(=O)Cc3ccccc32)CC1 the screen gave 10.45%.
With CCc1nn(C)c(Cl)c1CN1CCC2(C1)CN(C)C(=O)O2 (centres unmarked) the screen gave 19.2%.
With CN(C)C(=O)CN1CCC2(CC1)COC2 the screen gave 12.22%.
With COc1ccccc1C(=O)NCc1n[nH]c(C)n1 the screen gave 9.524%.
With CCS(=O)(=O)N1CCc2ccc(NC(=O)Nc3cccc(C)c3)cc21 the screen gave 6.761%.
With O=c1cc(Cn2ccnc2)nc2n1CCCN(S(=O)(=O)C1CC1)C2 the screen gave 8.791%.
With CC(C)NC(=O)[C@@H]1CN(Cc2ccc3c(c2)OCO3)C[C@H]2OCC[C@H]21 the screen gave 10.8%.
With COCCN1C[C@H]2[C@@H](C1)N(C(=O)CCc1ccccc1)CC[C@H]2OC the screen gave 10%.
With Cc1cccc(CC(=O)Nc2cccnc2N2CCC(CO)CC2)c1 the screen gave 2.899%.
With O=C(NCCCOc1cccnc1)c1cn(CCc2ccccc2)nn1 the screen gave 2.405%.
With Cc1nn(C)cc1-c1cc(C(F)F)nc(NC2CCCCC2)n1 the screen gave 16.32%.
With Cc1ccn2ncc(C(=O)N3CCCC(n4cccn4)C3)c2n1 (centres unmarked) the screen gave 11.96%.
With COCCc1noc(CN2CCN(c3ccc(OC)cc3)C(=O)C2C)n1 (centres unmarked) the screen gave 8.669%.
With CC(C)[C@H]1CN(Cc2c[nH]cn2)C[C@@H]1NC(=O)CC1CCC1 the screen gave 2.847%.
With Cc1cc2nc(C(C)C)cc(N3CCSCC3)n2n1 the screen gave 8.527%.
With O=C(c1cscn1)N1CCCC(n2cncn2)C1 (centres unmarked) the screen gave 22.79%.

Repeated from the top, 5 entries:

{"structure": "COCC(=O)N1CCC2(CC1)CC(N1CCOCC1)c1ccc(C)cc12", "stereo": "centres unmarked", "Inhibition": 8.741}
{"structure": "Cc1cc2c(c(-c3cnccn3)c1)OC(CN)C2", "stereo": "centres unmarked", "Inhibition": 9.926}
{"structure": "COc1ncccc1CNC(=O)c1cc(F)cc(Br)c1", "Inhibition": 10}
{"structure": "O=C(N[C@H]1CN(C2CCOCC2)C[C@@H]1C1CC1)c1ccon1", "Inhibition": 5.301}
{"structure": "Cc1cc(C)n(CCC(=O)N2CCCC(n3cncn3)C2)n1", "stereo": "centres unmarked", "Inhibition": 9.79}

Data taken from ChEMBL document CHEMBL3988442, “University of Dundee, Small-Polar-MMV Screening Library” (2021).